Experimental data: PubChem BioAssay AID1259254 (NCATS, 2017)
Test: 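Gene knock-downs that lead to re-replication, shown by excess G2 DNA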 (primary screen). System: human HCT116 colorectal cancer cells. Reagents: single siRNA against human genes. Timing: 3 days. Read-out: 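Imaged Hoechst DNA stain sorts each cell into a cycle phase by DNA amount; per plate, G2 fraction set to 0% for non-targeting and 100% for GMNN siRNA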. Scale: G2 robust z-score and G2 cells, % of GMNN control: higher = more G2 cells, more excess DNA replication. Rule for the call: 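An siRNA counts as active if its G2 robust z-score lies at least 5 MADs above the screen median; here such calls match roughly 38% of GMNN control or more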.
The whole screen tested about 59,000 reagents; this is a part drawn at random. About 1,550 of them (2.6%) count as active. 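G2 share is only a proxy for re-replication; each gene was hit by three separate siRNAs, and active genes were retested.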 The numbers tell different reagents against one gene apart. Not all columns of the deposit are shown. Not stated in the record: the amount of reagent.

CCDC117 (GeneID 150275) #1 — G2 robust z-score: -0.421; G2 cells, % of GMNN control: 0.00386; activity call: inactive
CCDC117 (GeneID 150275) #2 — G2 robust z-score: -0.759; G2 cells, % of GMNN control: -2.37; activity call: inactive
CCDC117 (GeneID 150275) #3 — G2 robust z-score: -0.128; G2 cells, % of GMNN control: 2.06; activity call: inactive
PCDHAC1 (GeneID 56135) #1 — G2 robust z-score: 0.837; G2 cells, % of GMNN control: 8.86; activity call: inactive
PCDHAC1 (GeneID 56135) #2 — G2 robust z-score: -1.15; G2 cells, % of GMNN control: -5.12; activity call: inactive
PCDHAC1 (GeneID 56135) #3 — G2 robust z-score: 3.65; G2 cells, % of GMNN control: 28.7; activity call: inactive
NMNAT2 (GeneID 23057) #1 — G2 robust z-score: -0.537; G2 cells, % of GMNN control: -0.807; activity call: inactive
NMNAT2 (GeneID 23057) #2 — G2 robust z-score: 2.52; G2 cells, % of GMNN control: 20.7; activity call: inactive
NMNAT2 (GeneID 23057) #3 — G2 robust z-score: -1.16; G2 cells, % of GMNN control: -5.19; activity call: inactive
PRAF2 (GeneID 11230) #1 — G2 robust z-score: -0.0954; G2 cells, % of GMNN control: 2.3; activity call: inactive
PRAF2 (GeneID 11230) #2 — G2 robust z-score: -0.685; G2 cells, % of GMNN control: -1.85; activity call: inactive
PRAF2 (GeneID 11230) #3 — G2 robust z-score: -1.09; G2 cells, % of GMNN control: -4.67; activity call: inactive

The list goes on, starting with the last 3 of the part before.
PRAF2 (GeneID 11230) #1 — G2 robust z-score: -0.0954; G2 cells, % of GMNN control: 2.3; activity call: inactive
PRAF2 (GeneID 11230) #2 — G2 robust z-score: -0.685; G2 cells, % of GMNN control: -1.85; activity call: inactive
PRAF2 (GeneID 11230) #3 — G2 robust z-score: -1.09; G2 cells, % of GMNN control: -4.67; activity call: inactive
XAGE5 (GeneID 170627) #1 — G2 robust z-score: 0.161; G2 cells, % of GMNN control: 4.1; activity call: inactive
XAGE5 (GeneID 170627) #2 — G2 robust z-score: -1.14; G2 cells, % of GMNN control: -5.07; activity call: inactive
XAGE5 (GeneID 170627) #3 — G2 robust z-score: -0.569; G2 cells, % of GMNN control: -1.03; activity call: inactive
LPAR6 (GeneID 10161) #1 — G2 robust z-score: -0.477; G2 cells, % of GMNN control: -0.389; activity call: inactive
LPAR6 (GeneID 10161) #2 — G2 robust z-score: -0.135; G2 cells, % of GMNN control: 2.01; activity call: inactive
LPAR6 (GeneID 10161) #3 — G2 robust z-score: -0.262; G2 cells, % of GMNN control: 1.13; activity call: inactive
WNT10A (GeneID 80326) #1 — G2 robust z-score: 0.15; G2 cells, % of GMNN control: 4.02; activity call: inactive
WNT10A (GeneID 80326) #2 — G2 robust z-score: 0.396; G2 cells, % of GMNN control: 5.75; activity call: inactive
WNT10A (GeneID 80326) #3 — G2 robust z-score: 0.209; G2 cells, % of GMNN control: 4.44; activity call: inactive
SPTY2D1 (GeneID 144108) #1 — G2 robust z-score: 1.37; G2 cells, % of GMNN control: 12.6; activity call: inactive
SPTY2D1 (GeneID 144108) #2 — G2 robust z-score: 0.288; G2 cells, % of GMNN control: 4.99; activity call: inactive
SPTY2D1 (GeneID 144108) #3 — G2 robust z-score: 0.0127; G2 cells, % of GMNN control: 3.06; activity call: inactive
